Laboratory results as given in the supplement of paper PMC12067093, “Discovery and optimisation of a covalent ligand for TRIM25 and its application to targeted protein ubiquitination” (Chemical Science, 2025).
The other results are listed elsewhere or left out.

Protein sequences, listed by entry. Tags and fused reporters are not part of them. Lines headed by an entry give the natural chain unless they say otherwise; changes in a name come on top.
UniProt O14545: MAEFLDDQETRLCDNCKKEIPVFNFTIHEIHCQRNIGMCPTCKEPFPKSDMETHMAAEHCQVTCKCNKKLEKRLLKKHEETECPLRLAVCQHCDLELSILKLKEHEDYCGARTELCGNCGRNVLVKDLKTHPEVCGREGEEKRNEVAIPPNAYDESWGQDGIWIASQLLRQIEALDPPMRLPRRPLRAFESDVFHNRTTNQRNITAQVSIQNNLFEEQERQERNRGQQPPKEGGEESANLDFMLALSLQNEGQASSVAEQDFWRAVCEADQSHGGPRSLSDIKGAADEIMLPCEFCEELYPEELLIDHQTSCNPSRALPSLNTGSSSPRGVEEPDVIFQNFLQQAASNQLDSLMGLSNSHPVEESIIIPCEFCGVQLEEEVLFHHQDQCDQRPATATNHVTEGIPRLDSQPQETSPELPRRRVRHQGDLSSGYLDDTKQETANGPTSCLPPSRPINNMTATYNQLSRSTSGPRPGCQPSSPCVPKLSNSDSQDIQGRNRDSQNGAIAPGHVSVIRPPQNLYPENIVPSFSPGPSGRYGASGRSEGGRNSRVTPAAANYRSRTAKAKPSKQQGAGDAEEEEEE
UniProt P48553, whole entry, looked up: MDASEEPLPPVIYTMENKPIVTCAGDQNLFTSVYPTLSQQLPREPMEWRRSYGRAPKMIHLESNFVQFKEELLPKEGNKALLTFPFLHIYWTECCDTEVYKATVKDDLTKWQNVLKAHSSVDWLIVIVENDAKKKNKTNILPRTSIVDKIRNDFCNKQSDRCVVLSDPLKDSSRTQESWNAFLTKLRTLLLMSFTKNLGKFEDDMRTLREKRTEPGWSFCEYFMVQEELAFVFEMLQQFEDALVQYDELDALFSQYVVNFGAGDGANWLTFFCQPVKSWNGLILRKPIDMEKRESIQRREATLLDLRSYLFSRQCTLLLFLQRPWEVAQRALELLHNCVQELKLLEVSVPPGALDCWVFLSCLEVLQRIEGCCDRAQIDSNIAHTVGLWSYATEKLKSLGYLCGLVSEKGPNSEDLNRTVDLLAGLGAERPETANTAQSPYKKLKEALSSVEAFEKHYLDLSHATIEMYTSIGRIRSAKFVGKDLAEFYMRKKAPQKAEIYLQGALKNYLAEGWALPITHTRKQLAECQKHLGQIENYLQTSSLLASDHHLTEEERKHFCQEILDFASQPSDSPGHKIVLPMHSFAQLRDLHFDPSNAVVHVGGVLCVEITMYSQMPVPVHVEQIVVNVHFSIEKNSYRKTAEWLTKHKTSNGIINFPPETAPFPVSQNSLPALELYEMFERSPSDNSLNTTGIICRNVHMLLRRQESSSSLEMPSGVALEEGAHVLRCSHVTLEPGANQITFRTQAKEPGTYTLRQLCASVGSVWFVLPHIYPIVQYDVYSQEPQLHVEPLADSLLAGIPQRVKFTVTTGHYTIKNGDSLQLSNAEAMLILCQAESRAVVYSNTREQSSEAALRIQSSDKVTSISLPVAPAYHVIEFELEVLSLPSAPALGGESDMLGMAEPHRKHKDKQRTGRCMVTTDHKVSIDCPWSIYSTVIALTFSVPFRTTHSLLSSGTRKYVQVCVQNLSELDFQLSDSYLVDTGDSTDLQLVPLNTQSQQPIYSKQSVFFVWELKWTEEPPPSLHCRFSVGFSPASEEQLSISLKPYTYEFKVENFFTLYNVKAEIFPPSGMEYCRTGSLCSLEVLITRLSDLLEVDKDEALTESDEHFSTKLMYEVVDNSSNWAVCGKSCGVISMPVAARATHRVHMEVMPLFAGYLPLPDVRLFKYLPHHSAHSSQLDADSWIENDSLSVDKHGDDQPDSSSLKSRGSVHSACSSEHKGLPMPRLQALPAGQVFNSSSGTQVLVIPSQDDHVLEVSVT
UniProt Q14669: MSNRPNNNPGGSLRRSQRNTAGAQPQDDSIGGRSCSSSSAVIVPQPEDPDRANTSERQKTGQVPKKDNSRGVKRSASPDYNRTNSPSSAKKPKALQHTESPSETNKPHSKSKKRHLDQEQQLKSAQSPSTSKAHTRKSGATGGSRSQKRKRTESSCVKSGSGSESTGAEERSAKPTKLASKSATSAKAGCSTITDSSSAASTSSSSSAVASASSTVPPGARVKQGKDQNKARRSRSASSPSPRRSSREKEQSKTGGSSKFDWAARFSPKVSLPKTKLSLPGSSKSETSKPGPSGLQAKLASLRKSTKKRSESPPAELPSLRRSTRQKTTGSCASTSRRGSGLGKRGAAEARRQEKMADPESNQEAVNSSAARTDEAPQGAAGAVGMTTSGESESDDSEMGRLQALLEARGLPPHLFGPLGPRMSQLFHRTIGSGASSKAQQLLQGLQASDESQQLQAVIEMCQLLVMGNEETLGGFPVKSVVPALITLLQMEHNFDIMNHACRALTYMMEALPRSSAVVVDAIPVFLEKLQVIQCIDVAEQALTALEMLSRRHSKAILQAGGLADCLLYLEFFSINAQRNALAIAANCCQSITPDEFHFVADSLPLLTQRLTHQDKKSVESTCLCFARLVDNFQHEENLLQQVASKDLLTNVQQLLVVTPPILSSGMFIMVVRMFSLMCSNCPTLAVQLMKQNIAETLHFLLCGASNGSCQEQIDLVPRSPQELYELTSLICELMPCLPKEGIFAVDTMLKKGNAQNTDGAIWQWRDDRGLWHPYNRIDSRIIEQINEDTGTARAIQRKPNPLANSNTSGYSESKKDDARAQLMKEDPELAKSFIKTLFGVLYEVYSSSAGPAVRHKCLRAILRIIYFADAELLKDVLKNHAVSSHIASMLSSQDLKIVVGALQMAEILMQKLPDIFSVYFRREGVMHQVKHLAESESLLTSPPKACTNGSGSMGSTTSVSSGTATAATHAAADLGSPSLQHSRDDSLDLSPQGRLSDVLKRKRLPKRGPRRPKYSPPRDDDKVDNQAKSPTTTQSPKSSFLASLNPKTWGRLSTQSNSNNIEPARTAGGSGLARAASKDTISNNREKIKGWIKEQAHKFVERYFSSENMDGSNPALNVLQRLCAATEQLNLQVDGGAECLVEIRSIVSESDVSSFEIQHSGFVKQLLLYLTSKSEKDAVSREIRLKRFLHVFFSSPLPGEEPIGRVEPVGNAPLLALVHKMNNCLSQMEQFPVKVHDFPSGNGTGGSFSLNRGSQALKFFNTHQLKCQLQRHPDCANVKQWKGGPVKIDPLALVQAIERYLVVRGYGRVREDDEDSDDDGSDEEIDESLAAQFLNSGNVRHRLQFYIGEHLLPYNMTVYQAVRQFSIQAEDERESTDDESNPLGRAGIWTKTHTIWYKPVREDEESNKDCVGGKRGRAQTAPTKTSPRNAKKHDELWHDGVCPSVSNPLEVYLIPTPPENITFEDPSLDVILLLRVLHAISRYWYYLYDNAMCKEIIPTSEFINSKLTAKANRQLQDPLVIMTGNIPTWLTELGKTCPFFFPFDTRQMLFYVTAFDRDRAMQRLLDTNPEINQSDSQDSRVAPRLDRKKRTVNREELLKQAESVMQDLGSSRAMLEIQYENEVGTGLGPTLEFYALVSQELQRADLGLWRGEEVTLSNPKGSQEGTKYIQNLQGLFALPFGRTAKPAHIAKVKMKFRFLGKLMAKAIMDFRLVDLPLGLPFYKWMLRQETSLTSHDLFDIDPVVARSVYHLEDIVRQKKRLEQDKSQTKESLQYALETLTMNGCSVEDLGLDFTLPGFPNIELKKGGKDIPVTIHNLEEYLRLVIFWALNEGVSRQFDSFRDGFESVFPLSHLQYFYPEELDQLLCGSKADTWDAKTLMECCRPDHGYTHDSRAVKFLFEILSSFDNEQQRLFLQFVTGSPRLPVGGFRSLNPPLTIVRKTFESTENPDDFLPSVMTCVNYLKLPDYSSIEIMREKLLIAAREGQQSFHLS
UniProt O00635: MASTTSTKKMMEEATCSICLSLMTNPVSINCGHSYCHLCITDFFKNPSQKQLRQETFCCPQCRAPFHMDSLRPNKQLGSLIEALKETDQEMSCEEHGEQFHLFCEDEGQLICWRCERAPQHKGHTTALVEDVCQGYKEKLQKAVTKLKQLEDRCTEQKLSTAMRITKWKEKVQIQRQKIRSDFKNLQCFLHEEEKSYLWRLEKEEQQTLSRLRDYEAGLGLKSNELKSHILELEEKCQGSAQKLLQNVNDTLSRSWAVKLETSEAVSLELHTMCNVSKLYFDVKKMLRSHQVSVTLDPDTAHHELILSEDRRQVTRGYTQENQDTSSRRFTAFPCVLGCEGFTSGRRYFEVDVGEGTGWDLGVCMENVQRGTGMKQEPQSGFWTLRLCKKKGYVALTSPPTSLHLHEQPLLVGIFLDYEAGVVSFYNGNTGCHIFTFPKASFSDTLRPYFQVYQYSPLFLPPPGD
UniProt Q9NQ86: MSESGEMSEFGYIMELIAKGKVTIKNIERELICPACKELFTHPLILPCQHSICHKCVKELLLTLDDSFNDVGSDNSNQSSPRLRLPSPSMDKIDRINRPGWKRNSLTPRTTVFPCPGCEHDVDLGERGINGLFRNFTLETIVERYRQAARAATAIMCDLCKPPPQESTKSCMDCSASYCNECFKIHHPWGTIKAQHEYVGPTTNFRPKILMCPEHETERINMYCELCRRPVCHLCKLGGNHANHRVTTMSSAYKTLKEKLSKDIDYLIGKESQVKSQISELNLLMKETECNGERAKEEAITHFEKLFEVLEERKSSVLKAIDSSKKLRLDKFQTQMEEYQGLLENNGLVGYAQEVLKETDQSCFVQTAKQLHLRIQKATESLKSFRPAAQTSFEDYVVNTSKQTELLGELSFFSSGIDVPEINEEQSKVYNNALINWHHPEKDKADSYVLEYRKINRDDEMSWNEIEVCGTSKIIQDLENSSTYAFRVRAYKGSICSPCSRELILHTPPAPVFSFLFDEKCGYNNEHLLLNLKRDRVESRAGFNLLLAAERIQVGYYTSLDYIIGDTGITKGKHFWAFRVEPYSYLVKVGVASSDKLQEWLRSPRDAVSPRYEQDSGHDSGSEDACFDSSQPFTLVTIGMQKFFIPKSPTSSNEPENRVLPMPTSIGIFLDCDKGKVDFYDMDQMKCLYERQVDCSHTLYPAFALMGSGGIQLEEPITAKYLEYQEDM
UniProt Q13263: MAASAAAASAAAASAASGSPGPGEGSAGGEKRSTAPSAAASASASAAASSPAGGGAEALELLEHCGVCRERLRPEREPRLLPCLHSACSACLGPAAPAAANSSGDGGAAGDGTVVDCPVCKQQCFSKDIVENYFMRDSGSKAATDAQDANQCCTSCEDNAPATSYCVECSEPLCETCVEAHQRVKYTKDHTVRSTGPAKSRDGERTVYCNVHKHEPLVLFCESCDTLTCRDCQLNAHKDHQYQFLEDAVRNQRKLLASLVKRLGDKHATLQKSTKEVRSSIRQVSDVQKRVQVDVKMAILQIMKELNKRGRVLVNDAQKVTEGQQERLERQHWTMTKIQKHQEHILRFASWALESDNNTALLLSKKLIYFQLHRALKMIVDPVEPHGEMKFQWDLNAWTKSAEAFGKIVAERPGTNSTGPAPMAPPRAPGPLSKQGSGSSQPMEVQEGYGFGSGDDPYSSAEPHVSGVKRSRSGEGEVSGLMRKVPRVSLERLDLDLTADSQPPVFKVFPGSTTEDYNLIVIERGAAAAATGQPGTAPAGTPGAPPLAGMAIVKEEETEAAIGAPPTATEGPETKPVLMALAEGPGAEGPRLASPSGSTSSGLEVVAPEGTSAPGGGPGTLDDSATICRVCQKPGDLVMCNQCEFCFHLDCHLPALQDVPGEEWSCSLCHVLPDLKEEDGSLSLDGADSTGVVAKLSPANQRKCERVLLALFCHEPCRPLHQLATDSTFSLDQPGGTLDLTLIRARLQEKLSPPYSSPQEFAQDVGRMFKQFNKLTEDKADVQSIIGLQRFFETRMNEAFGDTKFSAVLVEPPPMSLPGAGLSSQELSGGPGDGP
UniProt Q9UL33, whole entry, looked up: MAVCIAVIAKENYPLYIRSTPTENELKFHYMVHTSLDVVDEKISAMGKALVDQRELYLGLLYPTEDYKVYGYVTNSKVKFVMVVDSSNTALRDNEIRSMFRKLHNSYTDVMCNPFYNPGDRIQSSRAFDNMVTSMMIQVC
UniProt Q15650: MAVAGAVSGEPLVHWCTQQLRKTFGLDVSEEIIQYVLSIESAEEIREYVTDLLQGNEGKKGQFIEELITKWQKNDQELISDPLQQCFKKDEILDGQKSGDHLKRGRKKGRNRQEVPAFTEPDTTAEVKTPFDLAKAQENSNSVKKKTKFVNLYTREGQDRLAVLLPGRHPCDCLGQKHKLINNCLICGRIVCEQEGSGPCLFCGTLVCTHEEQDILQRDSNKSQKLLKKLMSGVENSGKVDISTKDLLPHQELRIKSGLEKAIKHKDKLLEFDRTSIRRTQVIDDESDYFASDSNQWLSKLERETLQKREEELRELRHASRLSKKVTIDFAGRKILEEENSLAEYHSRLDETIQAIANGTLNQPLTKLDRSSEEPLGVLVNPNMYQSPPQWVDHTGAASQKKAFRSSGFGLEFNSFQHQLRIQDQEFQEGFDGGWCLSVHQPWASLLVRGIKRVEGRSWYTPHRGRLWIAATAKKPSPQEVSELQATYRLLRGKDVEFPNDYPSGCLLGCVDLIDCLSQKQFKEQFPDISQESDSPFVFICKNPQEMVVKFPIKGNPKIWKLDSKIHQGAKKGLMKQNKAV

Compound: Cc1cc(ccc1-c1ccccc1)C(=O)N1CCCN(CC1)C(=O)CCl [compound 10]
Assay: probe-labelled cysteine peptide fold change vs DMSO (competition) (log2 fold change); higher = less target engagement (more negative = stronger competition)
Settings: THP-1, incubation time: 4 h
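Further: competitive profiling in live THP-1 cells: cysteine peptides tagged with an iodoacetamide desthiobiotin (IA-DTB) probe, intensity after compound treatment relative to DMSO-treated cells.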

Row | Target | probe-labelled cysteine peptide fold change (10 µM) | probe-labelled cysteine peptide fold change (50 µM)
1 | TRHDE_Q9UKU6_894_ILLEALTCSDDRNLLNR (UniProt Q9UKU6) | 0.0302 | -0.168
2 | TRAF3_Q13114_61_CHLVLCSPK (UniProt Q13114) | 0.0758 | -0.448
3 | TRAPPC11_Q7Z392_845_CGTVGSR (UniProt Q7Z392) | 0.0126 | 0.0768
4 | TRAF2_Q12933_156_HLEHECPER (UniProt Q12933) | -0.0324 | -0.107
5 | TRERF1_Q96PN7_517_LTCSICLK (UniProt Q96PN7) | 0.0707 | 0.00825
6 | TRAPPC8_Q9Y2L5_1330_SLCLVPVTLLLSNCSK (UniProt Q9Y2L5) | -0.106 | -0.116
7 | TRIOBP_Q9H2D6_2233_CQQEGQELLR (UniProt Q9H2D6) | 0.136 | -0.0418
8 | TRAFD1_O14545_116_TELCGNCGR (UniProt O14545) | 0.0202 | 0.112
9 | TRAPPC3_O43617_31_MSSELFTLTYGALVTQLCK (UniProt O43617) | -0.0343 | 0.356
10 | TRMT1L_Q7Z2T5_121_QACPLCPK (UniProt Q7Z2T5) | -0.0455 | -0.125
11 | TPP2_P29144_28_ETGAASFLCR (UniProt P29144) | 0.0614 | 0.0545
12 | TRMT2A_Q8IZ69_191_QLECEQVLQK (UniProt Q8IZ69) | -0.0728 | -0.0245
13 | TRMT1_Q9NXH9_482_VSLSHACK (UniProt Q9NXH9) | -0.0941 | -0.206
14 | TRAPPC10_P48553_696_SPSDNSLNTTGIICR (UniProt P48553) | -0.0232 | -0.261
15 | TRAFD1_O14545_93_LAVCQHCDLELSILK (UniProt O14545) | -0.0117 | -0.347
16 | TRIM33_Q9UPN9_754_GSCGSSGR (UniProt Q9UPN9) | -0.0933 | 0.937
17 | TRIP12_Q14669_156_TESSCVK (UniProt Q14669) | -0.128 | -0.297
18 | TRIM38_O00635_58_QETFCCPQCR (UniProt O00635) | -0.0831 | -0.146
19 | TPP2_P29144_1218_NCIQLMK (UniProt P29144) | 0.162 | 0.0877
20 | TPP2_P29144_1129_KGCALADHLLHTQAQDGAISTDAEGKEEEGESPLDSLAETFWETTK (UniProt P29144) | 0.143 | -0.674

Row | Target | probe-labelled cysteine peptide fold change (10 µM) | probe-labelled cysteine peptide fold change (50 µM)
21 | TRIM36_Q9NQ86_212_ILMCPEHETER (UniProt Q9NQ86) | 0.117 | 0.11
22 | TRIM33_Q9UPN9_276_PVFCPVHK (UniProt Q9UPN9) | -0.0409 | 0.108
23 | TRIM28_Q13263_717_VLLALFCHEPCR (UniProt Q13263) | 0.00318 | 0.0176
24 | TRAFD1_O14545_32_EIPVFNFTIHEIHCQR (UniProt O14545) | 0.282 | 0.345
25 | TRAPPC10_P48553_729_CSHVTLEPGANQITFR (UniProt P48553) | 0.0105 | -0.106
26 | TRAPPC10_P48553_162_CVVLSDPLK (UniProt P48553) | -0.195 | -0.191
27 | TRAF7_Q6Q0C0_282_YGCTFIGNQDTYETHLETCR (UniProt Q6Q0C0) | 0.477 | 0.396
28 | TRAPPC2L_Q9UL33_4_AVCIAVIAK (UniProt Q9UL33) | -0.0444 | 0.418
29 | TRIP4_Q15650_171_LAVLLPGRHPCDCLGQK (UniProt Q15650) | 0.0521 | -0.298
30 | TRIM28_Q13263_124_QQCFSK (UniProt Q13263) | 0.161 | -0.242
31 | TRIM33_Q9UPN9_943_DIGKPEVEYDCDNLQHSK (UniProt Q9UPN9) | -0.156 | -0.239
32 | TRIM36_Q9NQ86_48_ELFTHPLILPCQHSICHK (UniProt Q9NQ86) | 0.0602 | 0.00235
33 | TRIP4_Q15650_187_LINNCLICGR (UniProt Q15650) | -0.00768 | -0.204
34 | TRIM25_Q14258_498_FTYCSQVLGLHCYK (UniProt Q14258) | -1.23 | -2.92
35 | TPX2_Q9ULW0_145_CATPVIIDEILPSKK (UniProt Q9ULW0) | -0.122 | -0.223
36 | TRAP1_Q12931_527_DTEVLFCFEQFDELTLLHLR (UniProt Q12931) | 0.13 | 0.211
37 | TRIM56_Q9BRZ2_41_TLPCLHTYCQDCLAQLADGGR (UniProt Q9BRZ2) | 0.238 | 0.113
38 | TRIP12_Q14669_35_SCSSSSAVIVPQPEDPDRANTSER (UniProt Q14669) | 0.00993 | -0.396
39 | TRIM24_O15164_73_LLPCLHSFCQR (UniProt O15164) | -0.0887 | -0.068

Look-ups from the results shown.
Value of TPP2_P29144_28_ETGAASFLCR (UniProt P29144) under probe-labelled cysteine peptide fold change (50 µM): 0.0545
Value of TRIP4_Q15650_171_LAVLLPGRHPCDCLGQK (UniProt Q15650) under probe-labelled cysteine peptide fold change (10 µM): 0.0521
